# Test system: UACC62 and WM9 human melanoma cell lines (BRAFV600E)
# Assay: Global metabolic profiling by UPLC-MS/MS
# Format: cell-based
# Protocol: Briefly, samples were prepared using the automated MicroLab STAR® system (Hamilton Company). Recovery standards were added prior to the first step in the extraction process for QC purposes. Cell lysates were precipitated using methanol under vigorous shaking for 2 min, followed by centrifugation. The resulting extract was divided into five fractions: two samples for analysis using two separate reversephase (RP)/UPLC-MS/MS methods with positive ion mode electrospray ionization (ESI), one sample for analysis through RP/UPLC-MS/MS with negative ion mode ESI, one sample for analysis through HILIC/UPLC-MS/MS with negative ion mode ESI, and one sample was reserved for backup. The samples were briefly placed on a TurboVap® (Zymark) to remove the organic solvent. The sample extracts were stored overnight under nitrogen prior to preparation for analysis. Chromatography analyses were performed using Waters ACQUITY ultra-performance liquid chromatography (UPLC) and a Thermo Scientific Q-Exactive high resolution/accurate mass spectrometer interfaced with a heated electrospray ionization (HESI-II) source and Orbitrap mass analyzer operated at 35,000 mass resolution. The sample extract was dried and subsequently reconstituted in solvents compatible to each method (Miller et al. 2015). […]
smiles,measurement,value
CCCS(=O)(=O)Nc1ccc(F)c(C(=O)c2c[nH]c3ncc(-c4ccc(Cl)cc4)cc23)c1F [PLX4032],metabolites downregulated,45
same,metabolites upregulated,48
